Primary screen of a compound library

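Growth of Mycobacterium tuberculosis over 3 days (7H9 medium with glucose and tyloxapol); the read-out is not stated. Concentration: 500 µM. The record gives no direction; compounds that gave an IC50 in retests scored well above the rest, so higher reads as more growth inhibition. About 18,000 compounds were tested under these conditions; 7.9% (about 1,400) showed 50% or more at least once.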

Values are the deposited “Percent Effect”, in %. The record does not define 0% and 100%; most values in the screen are far below 50% and negative numbers occur (in some assays of this library far below -100). The compounds are a random part of those screened.

structure,effect
O=C1NCCN2CC3(CCNCC3)CC12 (stereo not drawn),8.501%
COc1ccc(CN)nc1,17.41%
NC(=O)CC1CCCN1 (stereo not drawn),5.886%
NCCc1ccc2cc[nH]c2c1,55.81%
CC(C#N)Sc1nnc(-c2cccnc2)n1C (stereo not drawn),7.171%
CC(N)COCC1CC1 (stereo not drawn),-0.02115%
CCC(CC)NCCO,-0.8615%
Cc1ccc(NC(=O)CCS(C)(=O)=O)c(CN(C)C)c1,8.898%
Cc1ccnc(NCCNC(=O)c2cc(C)n[nH]2)c1,15.57%
Cc1ccccc1CSCC(N)=O,24.68%
Cn1nccc1C(=O)Nc1cnccc1O,9.122%
CC(C)NC(=O)NC1CCNC1 (stereo not drawn),-0.7408%
CCCS(=O)(=O)Nc1cccc(OCC)n1,2.924%
COCC1(C(=O)N2CCC[C@@H]2C(N)=O)CCC1,9.494%
CN1CCC(NC(=O)NCCc2ccc(Br)s2)C1=O (stereo not drawn),-11.54%
Brc1ccc2c(c1)OCCNC2,60.91%
CN(C(=O)CCn1cccn1)C1CCS(=O)(=O)C1 (stereo not drawn),3.927%
CSc1cccc(CN(C)C(=O)CNC2CC2)c1,77.28%
O=C1N(CC2CC2)CCCC1(O)CN1CCSCC1 (stereo not drawn),-2.901%
CCN1CCN(c2nnc(-c3ccccn3)s2)CC1,-17.83%
CN1CCCN(C(=O)NC2CCCC2)CC1,-4.115%
CCC(C)NC(=O)c1cc(F)cc(F)c1 (stereo not drawn),65.82%
COC(=O)CNC(=O)c1ccc(C)c(-n2cccc2)c1,59.59%
Cc1n[nH]cc1CNCCNc1ncc(Cl)cc1Cl,54.98%
CCS(=O)(=O)N(C)CCCNc1ccc(C)c(C#N)n1,71.49%
CCC1(O)CCC12CCN(C(=O)c1cccnc1)CC2 (stereo not drawn),21.37%
CNS(=O)(=O)c1ccccc1S(=O)(=O)NC1CCOC1 (stereo not drawn),2.926%
CC1CN(CCCOc2ccc(C#N)cc2)CCN1 (stereo not drawn),67.2%
Cc1ccnc(NC(=O)CSc2nnc(N)s2)n1,7.293%
CCN(c1ccccc1C)S(C)(=O)=O,28.82%
CC(C)(C)OC(=O)N1CCCC1CN (stereo not drawn),69.27%
O=S1(=O)CCC(CNc2ccnc3ccc(Cl)cc23)C1 (stereo not drawn),-37.55%
Cc1noc(C)c1S(=O)(=O)N(C)C,3.34%
COc1ccccc1NCC(=O)NCC(C)(O)C(C)C (stereo not drawn),24.3%
COc1ccccc1[C@@H]1C[C@H]1N,24.48%
CNC(C)CS(C)(=O)=O (stereo not drawn),3.74%
Cn1ncc2c(NCCc3cccnc3)ncnc21,40.78%
c1cn2c(n1)CN(Cc1nc(C3CC3)no1)CC2,22.12%
Cc1nnnn1CCC(=O)NC(C)Cn1cccn1 (stereo not drawn),-7.911%
CCNC1=NN=C(c2ccc3c(c2)OCCCO3)CS1,64.82%
Cc1c(S(=O)(=O)Nc2cccc(F)c2)cnn1C,42.24%
COCc1nc2ccccc2n1CC(=O)NCC(C)C,-2.002%
Cn1ncc(Cl)c1C(=O)Nc1ccncc1,17.97%
CC(C)(C)OC(=O)N1CCN(CCCN)CC1,26.54%
NCCc1n[nH]c(=O)n1-c1ccc2c(c1)OCO2,0.1316%
Cc1nccn1CCN1CCOCC1,-17.17%

Once more, the final 5:

| structure | effect |
|---|---|
| `COCc1nc2ccccc2n1CC(=O)NCC(C)C` | -2.002% |
| `Cn1ncc(Cl)c1C(=O)Nc1ccncc1` | 17.97% |
| `CC(C)(C)OC(=O)N1CCN(CCCN)CC1` | 26.54% |
| `NCCc1n[nH]c(=O)n1-c1ccc2c(c1)OCO2` | 0.1316% |
| `Cc1nccn1CCN1CCOCC1` | -17.17% |

Data taken from ChEMBL document CHEMBL3988442, “University of Dundee, Small-Polar-MMV Screening Library” (2021).